In PubChem BioAssay (NCATS):
Inconclusive results, whose numbers are uncertain, are shown with a selection of clear calls. For part of these data: A potency beside an inconclusive call is a rough fit, not a confirmed value. The source made the active and inactive calls. The call rests on the fitted dose curve; in most records, active means well fitted cell-killing curve with a large enough effect; inconclusive means small, poorly fitted or top-dose-only effect, or effect the other way; inactive means no such curve, though single readings can be large or run the other way.

Assays:
[1] = Quantitative High-Throughput drug screen in 47 multiple myeloma cell lines against the NCATS MIPE library collection: LP1_DSMZ cell viability assay (AID 1918982); conditions: LP1 myeloma viability, CellTiter-Glo ATP luminescence, 48 h; viability (% of control): at 45.8 µM (top of the series); further: nearly all actives have a fitted effect of over 35% in size
Method in brief: (§1)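 Plated at 500 cells per well, myeloma lines received MIPE 4.0 compounds by pin tool. Following 48 h culture at 37 °C, CellTiter-Glo luminescence gave viability relative to DMSO and media-only controls.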

[2] = Quantitative High-Throughput drug screen in 47 multiple myeloma cell lines against the NCATS MIPE library collection: KMS28PE_JCRB cell viability assay (AID 1918983); further: nearly all actives have a fitted effect of over 35% in size
Method in brief: as §1

[3] = Quantitative High-Throughput drug screen in 47 multiple myeloma cell lines against the NCATS MIPE library collection: L363_DSMZ cell viability assay (AID 1918984); conditions: L363 myeloma viability, CellTiter-Glo ATP luminescence, 48 h; viability (% of control): at 45.8 µM (top of the series); further: nearly all actives have a fitted effect of over 40% in size
Method in brief: as §1

[4] = Quantitative High-Throughput drug screen in 47 multiple myeloma cell lines against the NCATS MIPE library collection: KMS34_JCRB cell viability assay (AID 1918985); conditions: KMS34 myeloma viability, CellTiter-Glo ATP luminescence, 48 h; viability, percent of control: at 45.8 µM (top of the series); further: nearly all actives have a fitted effect of over 40% in size;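 on viability, percent of control: 100% = DMSO-only wells and 0% = media-only wells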
Method in brief: as §1

[5] = Quantitative High-Throughput drug screen in 47 multiple myeloma cell lines against the NCATS MIPE library collection: OCIMY7_PLB cell viability assay (AID 1918987); conditions: OCI-MY7 myeloma viability, CellTiter-Glo ATP, 48 h; viability (% of DMSO): at 45.8 µM (top of the series); further: nearly all actives have a fitted effect of over 65% in size
Method in brief: as §1

[6] = Quantitative High-Throughput drug screen in 47 multiple myeloma cell lines against the NCATS MIPE library collection: OCIMY5_PLB cell viability assay (AID 1918988); conditions: OCI-MY5 myeloma viability, ATP luminescence, 48 h; viability, % of control: at 45.8 µM (top of the series); further: nearly all actives have a fitted effect of over 65% in size;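 on viability, % of control: 100% = DMSO-treated wells and 0% = wells with media alone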
Method in brief: as §1

[7] = Quantitative High-Throughput drug screen in 47 multiple myeloma cell lines against the NCATS MIPE library collection: SKMM1_PLB cell viability assay (AID 1919863); conditions: SKMM1 myeloma viability, CellTiter-Glo ATP, 48 h; viability: stronger effect = lower value; further: nearly all actives have a fitted effect of over 35% in size
Method in brief: as §1

[8] = Quantitative High-Throughput drug screen in 47 multiple myeloma cell lines against the NCATS MIPE library collection: OPM1_PLB cell viability assay (AID 1918989); conditions: CellTiter-Glo, 48 h; viability (% of control): at 45.8 µM (top of the series); further: nearly all actives have a fitted effect of over 40% in size
Method in brief: as §1

[9] = Quantitative High-Throughput drug screen in 47 multiple myeloma cell lines against the NCATS MIPE library collection: U266_ATCC cell viability assay (AID 1919864); further: nearly all actives have a fitted effect of over 35% in size
Method in brief: as §1
Potency means the concentration at half of the fitted maximal effect.

SMILES	Potency [1]	Potency [2]	Potency [3]	Potency [4]	Potency [5]	Potency [6]	Potency [7]	Potency [8]	Potency [9]	viability [7]
CCC1(c2ccccc2)C(=O)NCNC1=O	inactive	inconclusive: 0.0023 µM [rising, full curve]	inconclusive: 0.0074 µM [rising, full curve, poor fit]	inactive	active: 3.32 µM	inconclusive: 20.9 µM [cytotoxic, single point]	inconclusive: 0.0074 µM [rising, full curve, poor fit]			
Clc1ccc(C(Cn2ccnc2)OCc2ccc(Sc3ccccc3)cc2)c(Cl)c1 (stereo unspecified)	active: 23.5 µM	inconclusive: 33.2 µM [cytotoxic, single point]	active: 20.9 µM	inconclusive: 33.2 µM [cytotoxic, single point]			inconclusive: 33.2 µM [cytotoxic, single point]			
CC(C)C(=O)Nc1ccc([N+](=O)[O-])c(C(F)(F)F)c1	inactive	inconclusive: 0.001 µM	inconclusive: 1.48 µM [cytotoxic, full curve, poor fit]	inactive	active: 2.96 µM		inconclusive: 0.0187 µM [rising, full curve, poor fit]	active: 8.33 µM	active: 4.69 µM	
CC(C(=O)O)c1cccc(C(=O)c2ccccc2)c1 (stereo unspecified)	inactive	inactive	inconclusive: 2.96 µM [cytotoxic, full curve, poor fit]	inactive	inactive				inactive	
CCOC1OC(=O)C[C@H]1NC(=O)[C@@H]1CCCN1C(=O)[C@@H](NC(=O)c1ccc(N)c(Cl)c1)C(C)(C)C (stereo partly specified)	inactive	inconclusive: 0.001 µM	inconclusive: 13.2 µM [cytotoxic, partial curve, poor fit]			inactive				
Cc1[nH]c(C=C2C(=O)Nc3ccccc32)c(C)c1CCC(=O)O	inconclusive: 37.2 µM [cytotoxic, single point]	inconclusive: 8.33 µM [cytotoxic, partial curve, poor fit]	active: 9.35 µM	inconclusive: 20.9 µM [cytotoxic, partial curve, poor fit]			inconclusive: 18.7 µM [cytotoxic, partial curve]			
COc1ccnc(CS(=O)c2nc3ccc(OC(F)F)cc3[nH]2)c1OC (stereo unspecified)	inactive	inactive	inconclusive: 2.64 µM [cytotoxic, full curve, poor fit]	inactive		inactive				inactive: 150%
Cc1oncc1C(=O)Nc1ccc(C(F)(F)F)cc1	active: 10.5 µM	inconclusive: 3.32 µM [cytotoxic, partial curve, poor fit]	inconclusive: 20.9 µM [cytotoxic, partial curve, poor fit]	inconclusive: 18.7 µM [cytotoxic, partial curve, poor fit]	inactive	inconclusive: 8.33 µM [cytotoxic, partial curve, poor fit]			inconclusive: 18.7 µM [cytotoxic, partial curve, poor fit]	inactive: 115%
OC[C@H]1O[C@@H](n2cnc3c2NC=NC[C@@H]3O)C[C@H]1O	inactive	inconclusive: 5.9 µM [cytotoxic, partial curve, poor fit]	inactive	inconclusive: 37.2 µM [cytotoxic, single point]		inconclusive: 3.72 µM [cytotoxic, full curve, poor fit]			inconclusive: 33.2 µM [cytotoxic, single point]	
CON=C(C(=O)N[C@@H]1C(=O)N2C(C(=O)OCOC(=O)C(C)(C)C)=C(C=Cc3scnc3C)CS[C@H]12)c1csc(N)n1	inactive	inconclusive: 0.0059 µM [rising, full curve, poor fit]	inconclusive: 3.72 µM [rising, partial curve, poor fit]	inconclusive: 0.001 µM	inconclusive: 0.0935 µM [rising, full curve, poor fit]	inactive	inconclusive: 0.0053 µM [rising, full curve, poor fit]		inconclusive: 18.7 µM [cytotoxic, partial curve, poor fit]	
COCCn1c2c([n+](Cc3cnccn3)c1C)C(=O)c1ccccc1C2=O	active: 0.0132 µM	active: 0.0264 µM	inconclusive: 0.0132 µM [cytotoxic, full curve, poor fit]						active: 0.0059 µM	
O=c1c(-c2ccc(O)cc2)coc2cc(OC3O[C@H](CO)[C@H](O)[C@H](O)[C@H]3O)cc(O)c12 (stereo partly specified)	inconclusive: 20.9 µM [cytotoxic, single point]	inconclusive: 26.4 µM [cytotoxic, single point]	inconclusive: 0.0053 µM [cytotoxic, full curve, poor fit]	inconclusive: 26.4 µM [cytotoxic, single point]			inconclusive: 18.7 µM [cytotoxic, partial curve, poor fit]			
O=C1c2c(O)ccc(O)c2C(=O)c2c(NCCNCCO)ccc(NCCNCCO)c21	active: 5.9 µM	active: 0.935 µM		active: 2.96 µM		active: 1.32 µM				
O=C(c1ccc(F)c(F)c1Nc1ccc(I)cc1F)N1CC(O)([C@H]2CCCCN2)C1	inconclusive: 13.2 µM [cytotoxic, partial curve, poor fit]	active: 18.7 µM	active: 1.66 µM	inconclusive: 37.2 µM [cytotoxic, partial curve, poor fit]	inactive		active: 16.6 µM			
COc1ccc(-c2coc3cc(O)ccc3c2=O)cc1	inactive	inconclusive: 0.0012 µM [cytotoxic, full curve, poor fit]	inconclusive: 0.0372 µM [cytotoxic, full curve, poor fit]		inactive	inconclusive: 0.118 µM [cytotoxic, full curve, poor fit]	inconclusive: 0.0019 µM [cytotoxic, full curve, poor fit]		inactive	
CC(=Cc1ccccc1)C=C1SC(=S)N(CC(=O)O)C1=O	inactive	inactive	inconclusive: 0.001 µM	inactive	inconclusive: 5.26 µM [cytotoxic, partial curve, poor fit]	inconclusive: 0.0833 µM [cytotoxic, full curve, poor fit]			inactive	inactive: 123%
Cc1ccc(NC(=O)c2ccc(CN3CCN(C)CC3)cc2)cc1Nc1nccc(-c2cccnc2)n1	inconclusive: 26.4 µM [cytotoxic, single point]		inconclusive: 29.6 µM [cytotoxic, single point]	inconclusive: 0.0118 µM [cytotoxic, full curve, poor fit]		inconclusive: 23.5 µM [cytotoxic, single point]	inconclusive: 0.0047 µM [rising, full curve, poor fit]		inconclusive: 33.2 µM [cytotoxic, single point]	
O=C(Nc1ccc(F)c(C(F)(F)F)c1)Nc1nnc(-c2ccncc2)s1		inconclusive: 9.35 µM [cytotoxic, single point]	inconclusive: 3.32 µM [cytotoxic, partial curve, poor fit]	inconclusive: 0.296 µM [cytotoxic, full curve, poor fit]	inactive	active: 2.35 µM				
CN1CC(=O)N2C(Cc3c([nH]c4ccccc34)[C@H]2c2ccc3c(c2)OCO3)C1=O (stereo partly specified)	inconclusive: 4.69 µM [cytotoxic, partial curve, poor fit]		inactive	inconclusive: 0.418 µM [cytotoxic, partial curve, poor fit]	inconclusive: 18.7 µM [cytotoxic, partial curve, poor fit]	inconclusive: 23.5 µM [cytotoxic, partial curve, poor fit]			inactive	inactive: 129%
CC(=O)N(C)C1(c2ccccc2)CCN(CCC[C@]2(c3ccc(Cl)c(Cl)c3)CCCN(C(=O)c3ccccc3)C2)CC1	active: 26.4 µM			inconclusive: 26.4 µM [cytotoxic, single point]	active: 14.8 µM		inconclusive: 33.2 µM [cytotoxic, single point]		active: 23.5 µM	
O[C@@H](COc1cccc2ncccc12)CN1CCN(C2c3ccccc3[C@@H]3[C@H](c4ccccc42)C3(F)F)CC1 (stereo partly specified)	inconclusive: 20.9 µM [cytotoxic, partial curve]		inconclusive: 0.0053 µM [cytotoxic, full curve, poor fit]	inconclusive: 20.9 µM [cytotoxic, partial curve]	active: 7.43 µM	active: 18.7 µM	active: 23.5 µM			

2 compounds picked at random from those above:
SMILES	Potency [1]	Potency [2]	Potency [3]	Potency [4]	Potency [5]	Potency [6]	Potency [7]	Potency [8]	Potency [9]	viability [7]
CC(=Cc1ccccc1)C=C1SC(=S)N(CC(=O)O)C1=O	inactive	inactive	inconclusive: 0.001 µM	inactive	inconclusive: 5.26 µM [cytotoxic, partial curve, poor fit]	inconclusive: 0.0833 µM [cytotoxic, full curve, poor fit]			inactive	inactive: 123%
O[C@@H](COc1cccc2ncccc12)CN1CCN(C2c3ccccc3[C@@H]3[C@H](c4ccccc42)C3(F)F)CC1 (stereo partly specified)	inconclusive: 20.9 µM [cytotoxic, partial curve]		inconclusive: 0.0053 µM [cytotoxic, full curve, poor fit]	inconclusive: 20.9 µM [cytotoxic, partial curve]	active: 7.43 µM	active: 18.7 µM	active: 23.5 µM			
